Assay results: PubChem BioAssay AID1347423 (Functional Genomics Laboratory (NCATS/FGL), 2020)
Out of some 52,000 sequences screened, about 210 (0.4%) were called active.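 The calls were made as follows: active = gene whose silencing raises cell survival under the drug, median off-target-corrected z-score across its silencing RNAs 2 or more; inactive = the rest.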 The list shows a part of the results.

Assay: Resistance to Poly (ADP-Ribose) Polymerase inhibitor: Gene Identification via Genome-wide siRNA Screen
Conditions: mouse BRCA2 R2336H ES cells, olaparib, CellTiter-Glo viability; hits give high values
Outline: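 Mouse BRCA2 R2336H ES cells were reverse-transfected with siRNA (20 nM final), treated at 48 h with 500 nM olaparib, and read by CellTiter-Glo after 72 h. Scores: MAD-based z per siRNA, median per gene, seed off-target correction.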

Sequence | z-score
GCGCAUUCUGCAUCAUGCUTT against Chi3l3 | inactive: -0.374
GUGGACAUCCUCUCUGUCATT against 1810017F10Rik | inactive: -0.823
UCACCCUGUUCGUAAUCAUTT against Olfr467 | inactive: -0.886
CCUAGAUGUUUGUUUGGCUTT against Antxr2 | inactive: 0.226
GCAUAUGGACUUUCUGUCATT against 1700069O15Rik | inactive: -0.349
GGAACCUCUCAAUUUUGCGTT against 1500004A08Rik | inactive: -1.16
CGUGCAUGUGUAAGUCAGGTT against Hpvc2 | inactive: 0.307
CGAAUGUGUGAGAGAACAUTT against Zfp322a | inactive: -2.08
GGACCUGAAGAAAUAUUUCTT against Cdk5 | inactive: 0.437
GGAAAGAGAUGAGAAUUUUTT against 4930447C04Rik | inactive: 1.3
GGCUACCAGUUUAUCCACATT against Has3 | inactive: -0.192
GCUUUUUGUGAAACUGGCCTT against Pstpip2 | inactive: 1.38
GGUACCUCUGGAAAAUGAGTT against Rfng | inactive: 0.931
GGCCAUUGCCAAGCACAAUTT against Trim35 | inactive: -0.397
GGUCCUUGGAGAAGAUAUUTT against 2510006D16Rik | inactive: -1.43
GCUUGUACUCUUUGGCCGGTT against Rabac1 | inactive: 1.25
CGGAAGUCUACACGUCUUGTT against 2610034B18Rik | inactive: -1.49
GGAAGAGGAUGACAAGACATT against 1300010K09Rik | inactive: -0.207
GGCUACGUAGAUGUUGUAATT against Ankrd17 | inactive: -0.482
GGAUUUUCACUUUUACUCUTT against BC031748 | inactive: -0.035
GGACCCGUAUUUUAUGAAGTT against Sf3a2 | inactive: -1.67
GGCUCUGACCAAGAAUGAUTT against Cpsf1 | inactive: 1.05
CGGGACCUUUGUAACAGCUTT against Sirt3 | inactive: 0.676
CCAAUUGCUCUCCAUGAAATT against Coro1c | inactive: 0.402
GGAGAAGUGGGUUAAGAAUTT against Ccl12 | inactive: -0.585
CCACAUUAGGUGGAUAGGATT against E2f6 | inactive: -0.183

Sequence | z-score
CGCGUGAUUGAUGUUUUACTT against Sca10 | inactive: 0.765
GCUAUGAAAGGGCGAUUUGTT against Optn | inactive: 1.77
GGAGGCUUAGGAUAAUUUATT against 2810046L04Rik | inactive: -0.332
CCUCACUUAACCAUACAUGTT against Rhoe | inactive: -0.16
GGGAGACUGGUUCUUGAAGTT against Slc38a5 | inactive: 1.47
GGAGUUCUUUCUGAUAUCATT against Net1 | inactive: 3.65
GGAUGGAUGAUCCAUACUGTT against Sell | inactive: 0.429
GCAAGAAUCUGCUCUUAGUTT against AW547186 | inactive: -0.375
CCCUAUAAGCAACUUAUGCTT against MGC6357 | inactive: 0.548
GGCAUCACUGGUAAACAUUTT against Frzb | inactive: -1.68
GCUUGCCUGCAUGGAUACATT against Olfr1203 | inactive: -0.104
GGAUUACGCAGAUUCCAUUTT against Rab22a | inactive: -0.235
GCCACUGGGACCUAUUGAUTT against 6230410P16Rik | inactive: 0.0057
CGAAGAGAAGUUAUUUGUATT against Mrps23 | inactive: 0.797
GAACCUAAAGUCAUACUUGTT against Bcl2a1c | inactive: -0.796
GCAGAUUUUAGCUCCUCGATT against 5730410E15Rik | inactive: -0.297
GGAAAAUCAAGACCUAUGGTT against Obox6 | inactive: -2.62
GGAGAGAAAUCCAAAACCCTT against Arf6 | inactive: 0.524
GGAAAAGACAUCAUUGUGCTT against Olfr914 | inactive: 0.837
GGCAGAAGGAACAAGAGAATT against Cd209b | inactive: -0.78
CCAUUUAUAUCAGGCAUCATT against Lrrc21 | inactive: -0.0912
GGAAGUCAAGCAAAAGUUUTT against Hsd17b7 | inactive: -0.221
GGAAUGAAAGACAACCUAATT against Epb4.2 | inactive: -0.254
GCUUCCUAGAUCAUGACUGTT against Ube2g2 | inactive: -0.719
GGCCAAGUUCGGCAUCUUUTT against 0610025O11Rik | inactive: 1.53
GGUAGUGCAAGUGUUCCGCTT against Kcns1 | inactive: 1.13

Some of the entries above in a different format.

| Sequence | z-score |
| --- | --- |
| GCUUUUUGUGAAACUGGCCTT against Pstpip2 | inactive: 1.38 |
| GGUACCUCUGGAAAAUGAGTT against Rfng | inactive: 0.931 |
| GGCCAUUGCCAAGCACAAUTT against Trim35 | inactive: -0.397 |
| GGUCCUUGGAGAAGAUAUUTT against 2510006D16Rik | inactive: -1.43 |
| GCUUGUACUCUUUGGCCGGTT against Rabac1 | inactive: 1.25 |
| CGGAAGUCUACACGUCUUGTT against 2610034B18Rik | inactive: -1.49 |
| GGAAGAGGAUGACAAGACATT against 1300010K09Rik | inactive: -0.207 |
| GGCUACGUAGAUGUUGUAATT against Ankrd17 | inactive: -0.482 |
| GGAUUUUCACUUUUACUCUTT against BC031748 | inactive: -0.035 |
| GGACCCGUAUUUUAUGAAGTT against Sf3a2 | inactive: -1.67 |
| GGCUCUGACCAAGAAUGAUTT against Cpsf1 | inactive: 1.05 |
| CGGGACCUUUGUAACAGCUTT against Sirt3 | inactive: 0.676 |
| CCAAUUGCUCUCCAUGAAATT against Coro1c | inactive: 0.402 |
| GGAGAAGUGGGUUAAGAAUTT against Ccl12 | inactive: -0.585 |
| CCACAUUAGGUGGAUAGGATT against E2f6 | inactive: -0.183 |
| CGCGUGAUUGAUGUUUUACTT against Sca10 | inactive: 0.765 |
| GCUAUGAAAGGGCGAUUUGTT against Optn | inactive: 1.77 |
| GGAGGCUUAGGAUAAUUUATT against 2810046L04Rik | inactive: -0.332 |
| CCUCACUUAACCAUACAUGTT against Rhoe | inactive: -0.16 |
| GGGAGACUGGUUCUUGAAGTT against Slc38a5 | inactive: 1.47 |
| GGAGUUCUUUCUGAUAUCATT against Net1 | inactive: 3.65 |
| GGAUGGAUGAUCCAUACUGTT against Sell | inactive: 0.429 |
| GCAAGAAUCUGCUCUUAGUTT against AW547186 | inactive: -0.375 |
| CCCUAUAAGCAACUUAUGCTT against MGC6357 | inactive: 0.548 |

Next part

Sequence | z-score
GGAGGCCAAAGGACUGAUCTT against AU042671 | inactive: 0.245
GCUGUACGAGAAUAAGAAGTT against Impact | inactive: -0.431
GCCUCUACAAGCCAACAUGTT against Pdgfc | inactive: -1.94
CCAGAGCGAGUACAUUGCATT against Xpnpep1 | inactive: -2.63
GAGCGAACAUGUGUUUUACTT against Hist1h4h | inactive: 0.062
GGAGCAAAAAUUCUCCCAUTT against Il18rap | inactive: -1.16
GGCCAUGAUGGCUUUUACUTT against Serpinf2 | inactive: 1.68
GGUUCCUGAGUCCUGAAUUTT against Mrpl19 | inactive: -2.51
CCUAAGUAAGAUGACAUUUTT against Slc35f5 | inactive: -0.877
GGGAGAAAAAGCCCGGUGATT against Slc22a18 | inactive: -0.711
CCAGUAAAACCUCUAACAATT against Kremen | inactive: -0.422
CCUAAUGAUAGAGGAGCUGTT against Myoz3 | inactive: -0.849
GGUCUCCAAGGAAAAUGAGTT against H2-Q2 | inactive: -0.529
GGGUACCUCCCUGAGAUAUTT against Tyrobp | inactive: 0.844
GGAGAGUCCACUAAUACUGTT against Dmrt3 | inactive: -1.02
GGGAUGCAUUUCUCAAAUCTT against Olfr731 | inactive: 0.0578
GGAAACUUACAAACUGCCGTT against Bhlhb2 | inactive: 1.03
CGAGGUCUGUGCUUAUGAGTT against 3321401G04Rik | inactive: 0.365
GAUGGAUCGAACUCUGCACTT against Stard10 | inactive: 0.256
GGUCAACAUGGAGAAGUACTT against Sp100 | inactive: -1.34
UGCUUUCAUUCUAACAAGCTT against Olfr926 | inactive: -0.531
GGAACAGCCUGUCAUUGAATT against Scn1a | inactive: -0.152
GUGUGUGAUGUUCCCUAUGTT against LOC56628 | inactive: 0.0282
CGUAGAUCUGGAUUGCUUUTT against Poli | inactive: -1.29
GGUGUUUACUAGUUUCUGATT against Neurod6 | inactive: 1.18
CCGAAUGUGGAUGUGAUGATT against 4930518F03Rik | inactive: 1.22

Sequence | z-score
GGAUACGACACCAAGAAUATT against C230093N12Rik | inactive: -0.442
GGGCUCCUUGUUUUAUUCUTT against 2610524G07Rik | inactive: 0.812
CCAGGUGUACGUCCUACAATT against Pofut2 | inactive: 0.174
CGCCCUGUUUGGUGAACUUTT against Pcdhga2 | inactive: -2.2
GUGCAAACGGCAAACAUUCTT against 1700001G17Rik | inactive: -1.01
GGGCUAUCCUUCUGAAUUUTT against Csnk1d | inactive: 1.49
CGUGAAGGAAACUUUUCAGTT against AI931714 | inactive: 0.853
GGAUAUUGAUUCAGUCAAGTT against Rac2 | inactive: -0.165
CCUUGUUGCUUUCCUAACCTT against 2010002M12Rik | inactive: 1.03
GGAACCCAUCUCUCAAGCATT against Atp5g1 | inactive: -0.643
GCGGACACUACCACCGUUUTT against 4930477M19 | inactive: 0.636
CCAAUUCUACCUAUUACAGTT against Apxl | inactive: -1.69
GGUGAAGCGAAUUCUCUACTT against Upb1 | inactive: -0.423
GGGACAUUGUGUUGGACGUTT against 3110031B13Rik | inactive: -0.0333
CCAGAAUGGCUAAGGGAAATT against LOC433886 | inactive: 0.512
GGUGUUUAAUUGCUCACUATT against BC021523 | inactive: -0.71
CGAAAGCUAAACUAAAAGATT against 2310014H19Rik | inactive: 1.67
GCGAACGAGACACUUCAAUTT against Pla2g4a | inactive: 0.583
GGAUUACGAGAACAAAAACTT against Jag1 | inactive: 0.758
GGGAUAAAGAGAGACCCAATT against E030034P13Rik | inactive: 0.0438
GGCUGAUUAUAUUUUUGGUTT against Ush1g | inactive: -0.0419
GCUCAACAGCAGUGACGAUTT against Nras | inactive: -0.348
GAGAAUGCUUCAGUGGUGATT against Pcdha9 | inactive: 0.71
GCUGUUUGAAGCUGAUACCTT against Fads3 | inactive: 0.157
GCAACCAUCGUAGCAGAUCTT against Aaas | inactive: 0.628
